Measured values as given in the supplement of paper PMC12067093, “Discovery and optimisation of a covalent ligand for TRIM25 and its application to targeted protein ubiquitination” (Chemical Science, 2025).
This is one part of the list.

Tests used:
[1] = target: PYCR1_P32322_95_HIVVSCAAGVTISSIEK (UniProt P32322); test: probe-labelled cysteine peptide fold change vs DMSO (competition) (log2 fold change); higher = less target engagement (more negative = stronger competition); details: THP-1, incubation time: 4 h
[2] = target: PYCR2_Q96C36_95_HIVVSCAAGVTISSVEK (UniProt Q96C36); test: as above; details: THP-1, incubation time: 4 h
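Note: competitive chemoproteomic profiling in live THP-1 cells with an iodoacetamide desthiobiotin (IA-DTB) probe, comparing probe-labelled peptide intensities in compound-treated cells against DMSO-treated controls.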

CC1Cc2ccccc2N1C(=O)C1CCCN(C(=O)CCl)C1 (mixture of isomers) [TRIM25 ligand 11 (diastereomer mixture)]
probe-labelled cysteine peptide fold change ([1]; 10 µM): 0.0152
probe-labelled cysteine peptide fold change ([1]; 50 µM): 0.0688
probe-labelled cysteine peptide fold change ([2]; 10 µM): 0.223
probe-labelled cysteine peptide fold change ([2]; 50 µM): 0.327
